Results are given in words; binding and its absence hold for the method and conditions named. Some entries that bind do so weakly or less than the wild type. For some of these results: Sequences can lack the tags named with a protein.

In one test the target is T1, Scd6 (two-hybrid fusion) (S. cerevisiae, UniProt P45978 1-349).
T1 construct: Scd6, S. cerevisiae; source: yeast two-hybrid fusion
T1 sequence (looked up): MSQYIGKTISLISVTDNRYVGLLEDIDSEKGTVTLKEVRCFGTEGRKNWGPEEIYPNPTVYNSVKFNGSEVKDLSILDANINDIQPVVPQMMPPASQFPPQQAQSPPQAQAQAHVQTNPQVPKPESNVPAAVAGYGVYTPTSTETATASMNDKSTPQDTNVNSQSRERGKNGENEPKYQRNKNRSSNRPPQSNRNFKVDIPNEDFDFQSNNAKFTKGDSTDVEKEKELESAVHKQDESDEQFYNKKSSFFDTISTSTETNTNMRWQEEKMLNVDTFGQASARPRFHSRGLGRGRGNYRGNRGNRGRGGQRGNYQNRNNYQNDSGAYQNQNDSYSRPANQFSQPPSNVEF
The test is described as follows: two-hybrid; yeast strain MAV203 (wild type for EDC3); β-galactosidase activity by Beta-Glo; Pat1 fused to Gal4AD.

Test [1] has as its target T2, Edc3 (two-hybrid fusion to the DNA binding domain) (S. cerevisiae) (UniProt P39998).
T2 sequence: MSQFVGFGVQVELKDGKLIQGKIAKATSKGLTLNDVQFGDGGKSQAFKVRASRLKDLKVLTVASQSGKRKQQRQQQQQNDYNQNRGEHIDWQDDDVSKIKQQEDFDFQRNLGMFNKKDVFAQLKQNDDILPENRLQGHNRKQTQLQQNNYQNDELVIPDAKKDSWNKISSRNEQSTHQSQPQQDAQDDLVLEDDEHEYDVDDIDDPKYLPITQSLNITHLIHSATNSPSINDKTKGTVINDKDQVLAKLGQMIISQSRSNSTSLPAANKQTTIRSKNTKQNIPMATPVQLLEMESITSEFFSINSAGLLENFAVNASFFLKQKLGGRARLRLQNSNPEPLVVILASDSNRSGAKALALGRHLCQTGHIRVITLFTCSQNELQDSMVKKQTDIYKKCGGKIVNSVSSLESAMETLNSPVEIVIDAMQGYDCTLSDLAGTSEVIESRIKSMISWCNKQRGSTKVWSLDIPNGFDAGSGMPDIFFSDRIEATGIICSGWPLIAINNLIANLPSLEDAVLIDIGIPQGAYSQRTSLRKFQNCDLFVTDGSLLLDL
Described as above.

The target of test [2] is S. cerevisiae Pat1 C-terminal domain (ScPat1C, residues 473-796) (S. cerevisiae) (UniProt P25644). The test is described as follows: SAXS; small angle X-ray scattering at 5.4 and 11.2 mg/mL ScPat1C; experimental curve compared with curves calculated from the monomer and from the crystal dimer; both purified.
The target is the same in test [3]. The test is described as follows: SEC-MALS; size exclusion chromatography coupled online to a triple detection array (MALLS); protein at 2 mg/mL; both purified.

B1: full-length ScPat1 (two-hybrid fusion to Gal4AD) (natural protein, S. cerevisiae, UniProt P25644 1-796, looked up)
chain: MSFFGLENSGNARDGPLDFEESYKGYGEHELEENDYLNDETFGDNVQVGTDFDFGNPHSSGSSGNAIGGNGVGATARSYVAATAEGISGPRTDGTAAAGPLDLKPMESLWSTAPPPAMAPSPQSTMAPAPAPQQMAPLQPILSMQDLERQQRQMQQQFMNFHAMGHPQGLPQGPPQQQFPMQPASGQPGPSQFAPPPPPPGVNVNMNQMPMGPVQVPVQASPSPIGMSNTPSPGPVVGATKMPLQSGRRSKRDLSPEEQRRLQIRHAKVEKILKYSGLMTPRDKDFITRYQLSQIVTEDPYNEDFYFQVYKIIQRGGITSESNKGLIARAYLEHSGHRLGGRYKRTDIALQRMQSQVEKAVTVAKERPSKLKDQQAAAGNSSQDNKQANTVLGKISSTLNSKNPRRQLQIPRQQPSDPDALKDVTDSLTNVDLASSGSSSTGSSAAAVASKQRRRSSYAFNNGNGATNLNKSGGKKFILELIETVYEEILDLEANLRNGQQTDSTAMWEALHIDDSSYDVNPFISMLSFDKGIKIMPRIFNFLDKQQKLKILQKIFNELSHLQIIILSSYKTTPKPTLTQLKKVDLFQMIILKIIVSFLSNNSNFIEIMGLLLQLIRNNNVSFLTTSKIGLNLITILISRAALIKQDSSRSNILSSPEISTWNEIYDKLFTSLESKIQLIFPPREYNDHIMRLQNDKFMDEAYIWQFLASLALSGKLNHQRIIIDEVRDEIFATINEAETLQKKEKELSVLPQRSQELDTELKSIIYNKEKLYQDLNLFLNVMGLVYRDGEISELK
notes: Pat1, S. cerevisiae, full-length; pBS2374 is named only as the template for the Gal4AD-Pat1ΔC68 plasmid pBS4907; also called wild type ScPat1; full-length Pat1 protein; source: yeast two-hybrid fusion
B1: the binding entry (with Scd6 (two-hybrid fusion); in test [1]) was “binds” in each case.

B2: S. cerevisiae Pat1 C-terminal domain (ScPat1C, residues 473-796) (domain or fragment, UniProt P25644 473-796)
chain: GGKKFILELIETVYEEILDLEANLRNGQQTDSTAMWEALHIDDSSYDVNPFISMLSFDKGIKIMPRIFNFLDKQQKLKILQKIFNELSHLQIIILSSYKTTPKPTLTQLKKVDLFQMIILKIIVSFLSNNSNFIEIMGLLLQLIRNNNVSFLTTSKIGLNLITILISRAALIKQDSSRSNILSSPEISTWNEIYDKLFTSLESKIQLIFPPREYNDHIMRLQNDKFMDEAYIWQFLASLALSGKLNHQRIIIDEVRDEIFATINEAETLQKKEKELSVLPQRSQELDTELKSIIYNKEKLYQDLNLFLNVMGLVYRDGEISELK
As to B2, the binding result in test [2] was “no binding (tested: 5.4 and 11.2 mg/mL)”; in test [3], “no binding (tested: 2 mg/mL)”.

(Values after publication PMC4022514, “The C-Terminal Domain from S. cerevisiae Pat1 Displays Two Conserved Regions Involved in Decapping Factor Recruitment” (PLoS ONE, 2014).)
